{"source": "PubChem BioAssay AID504774 (Drosophila RNAi Screening Center, 2011)", "assay": "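Knock-downs that shift viability of MMS-exposed cells relative to untreated ones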 (primary screen)", "cell system": "Drosophila Kc167 cells", "reagents": "long dsRNA against Drosophila genes, about 0.25 µg dsRNA per well", "time to read-out": "about 6 days: 3 days knock-down, then 3 days with or without MMS", "treatment": "methyl methanesulphonate 0.004% (w/v) for 3 days after knock-down", "measurement": "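ATP-dependent luminescence as a measure of live cells in MMS-exposed wells, quantile normalised within each plate, with replicate values also given as a mean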", "direction": "mean viability with MMS and viability with MMS: higher = more surviving cells after MMS", "note": "The screen tested about 23,000 reagents; shown is an unselected part of those that have a named target and a result. 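Values are quantile-normalised luminescence on an arbitrary scale; higher means more cells surviving MMS.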 The numbers tell different reagents against one gene apart. Not all columns of the deposit are shown."}
{"target": "COX6CL (GeneID 318868)", "reagent": 1, "mean viability with MMS": 3.85e6, "viability with MMS, replicate 1": 4.30e6}
{"target": "Sqor (GeneID 38514)", "reagent": 1, "mean viability with MMS": 3.67e6, "viability with MMS, replicate 1": 4.23e6}
{"target": "Osi17 (GeneID 40774)", "reagent": 1, "mean viability with MMS": 3.35e6, "viability with MMS, replicate 1": 3.83e6}
{"target": "Cyp309a1 (GeneID 33438)", "reagent": 1, "mean viability with MMS": 3.48e6, "viability with MMS, replicate 1": 3.98e6}
{"target": "CG6254 (GeneID 41244)", "reagent": 1, "mean viability with MMS": 3.50e6, "viability with MMS, replicate 1": 3.84e6}
{"target": "CG4161 (GeneID 34907)", "reagent": 1, "mean viability with MMS": 3.56e6, "viability with MMS, replicate 1": 4.04e6}
{"target": "Rtnl2 (GeneID 40903)", "reagent": 1, "mean viability with MMS": 3.65e6, "viability with MMS, replicate 1": 4.00e6}
{"target": "Rtnl2 (GeneID 40903)", "reagent": 2, "mean viability with MMS": 3.54e6, "viability with MMS, replicate 1": 4.03e6}
{"target": "CG32633 (GeneID 326225)", "reagent": 1, "mean viability with MMS": 3.58e6, "viability with MMS, replicate 1": 3.95e6}
{"target": "Acp95EF (GeneID 47852)", "reagent": 1, "mean viability with MMS": 3.54e6, "viability with MMS, replicate 1": 4.03e6}
{"target": "CG14563 (GeneID 40435)", "reagent": 1, "mean viability with MMS": 3.47e6, "viability with MMS, replicate 1": 3.97e6}
{"target": "dpr8 (GeneID 32387)", "reagent": 1, "mean viability with MMS": 3.69e6, "viability with MMS, replicate 1": 4.09e6}
{"target": "dpr8 (GeneID 32387)", "reagent": 2, "mean viability with MMS": 3.69e6, "viability with MMS, replicate 1": 4.21e6}
{"target": "dpr8 (GeneID 32387)", "reagent": 3, "mean viability with MMS": 3.63e6, "viability with MMS, replicate 1": 4.15e6}
{"target": "dpr8 (GeneID 32387)", "reagent": 4, "mean viability with MMS": 3.61e6, "viability with MMS, replicate 1": 4.06e6}
{"target": "CG5515 (GeneID 42875)", "reagent": 1, "mean viability with MMS": 3.48e6, "viability with MMS, replicate 1": 3.96e6}
{"target": "CG31556 (retired record) (GeneID 318800)", "reagent": 1, "mean viability with MMS": 3.48e6, "viability with MMS, replicate 1": 3.80e6}
{"target": "CG31556 (retired record) (GeneID 318800)", "reagent": 2, "mean viability with MMS": 3.75e6, "viability with MMS, replicate 1": 4.14e6}
{"target": "Mnat9 (GeneID 43726)", "reagent": 1, "mean viability with MMS": 3.46e6, "viability with MMS, replicate 1": 3.93e6}
{"target": "Acp32CD (GeneID 34531)", "reagent": 1, "mean viability with MMS": 3.58e6, "viability with MMS, replicate 1": 4.11e6}
{"target": "Rab35 (GeneID 33014)", "reagent": 1, "mean viability with MMS": 3.60e6, "viability with MMS, replicate 1": 4.04e6}
{"target": "CG34249 (retired record) (GeneID 5740397)", "reagent": 1, "mean viability with MMS": 3.42e6, "viability with MMS, replicate 1": 4.02e6}
{"target": "TTLL3B (GeneID 33946)", "reagent": 1, "mean viability with MMS": 3.72e6, "viability with MMS, replicate 1": 4.05e6}
{"target": "CG8777 (GeneID 35921)", "reagent": 1, "mean viability with MMS": 3.44e6, "viability with MMS, replicate 1": 3.87e6}
{"target": "EMC1 (GeneID 40933)", "reagent": 1, "mean viability with MMS": 3.30e6, "viability with MMS, replicate 1": 3.79e6}
{"target": "nerfin-2 (GeneID 41235)", "reagent": 1, "mean viability with MMS": 3.54e6, "viability with MMS, replicate 1": 4.04e6}
{"target": "CheA86a (GeneID 3772145)", "reagent": 1, "mean viability with MMS": 3.56e6, "viability with MMS, replicate 1": 3.96e6}
{"target": "CG15536 (GeneID 43610)", "reagent": 1, "mean viability with MMS": 3.71e6, "viability with MMS, replicate 1": 3.97e6}
{"target": "CG15536 (GeneID 43610)", "reagent": 2, "mean viability with MMS": 3.51e6, "viability with MMS, replicate 1": 4.05e6}
{"target": "dmrt93B (GeneID 42494)", "reagent": 1, "mean viability with MMS": 3.49e6, "viability with MMS, replicate 1": 3.93e6}
{"target": "CG13875 (GeneID 38024)", "reagent": 1, "mean viability with MMS": 3.59e6, "viability with MMS, replicate 1": 4.10e6}
{"target": "Jhbp13 (GeneID 34729)", "reagent": 1, "mean viability with MMS": 3.43e6, "viability with MMS, replicate 1": 3.88e6}
{"target": "CG6191 (GeneID 36513)", "reagent": 1, "mean viability with MMS": 3.40e6, "viability with MMS, replicate 1": 3.88e6}
{"target": "CG6191 (GeneID 36513)", "reagent": 2, "mean viability with MMS": 3.72e6, "viability with MMS, replicate 1": 4.37e6}
{"target": "GramD1B (GeneID 33552)", "reagent": 1, "mean viability with MMS": 3.66e6, "viability with MMS, replicate 1": 3.98e6}
{"target": "GramD1B (GeneID 33552)", "reagent": 2, "mean viability with MMS": 3.44e6, "viability with MMS, replicate 1": 3.98e6}
